Some of the results follow.
Assays:
Test in all cases: log2 fold change, soluble protein after heating vs DMSO (PISA); higher = thermal stabilisation; K562 cells, 10 uM, 30 min; active = over 0.2 and 3.5 SD of the protein, either way, in both replicates (recomputed)
[1] = compound: COC1=CC=C(C=C1)CN2C=CC3=C2C=C(C=C3)C(=O)NO
In short: (§1)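 Thermal stability values are relative to control samples and come from duplicates. They are expressed as log2 fold changes. For measurement, K562 cells (2×10^6 cells/mL) received 10 μM compound for 30 min, and aliquots were heated for 3 min over 48°C-58°C, pooled, and extracted at 4°C in PBS with 0.5% NP-40. Soluble protein, the supernatant after 21,000xg for 90 min, was quantified by TMTpro 16plex LC-MS/MS with equalised channel sums.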

The chains behind the UniProt entries cited, without tags or fusion partners. Where a name states a change or a piece, a line headed by the entry shows the natural chain unless it says otherwise.
UniProt Q7Z569: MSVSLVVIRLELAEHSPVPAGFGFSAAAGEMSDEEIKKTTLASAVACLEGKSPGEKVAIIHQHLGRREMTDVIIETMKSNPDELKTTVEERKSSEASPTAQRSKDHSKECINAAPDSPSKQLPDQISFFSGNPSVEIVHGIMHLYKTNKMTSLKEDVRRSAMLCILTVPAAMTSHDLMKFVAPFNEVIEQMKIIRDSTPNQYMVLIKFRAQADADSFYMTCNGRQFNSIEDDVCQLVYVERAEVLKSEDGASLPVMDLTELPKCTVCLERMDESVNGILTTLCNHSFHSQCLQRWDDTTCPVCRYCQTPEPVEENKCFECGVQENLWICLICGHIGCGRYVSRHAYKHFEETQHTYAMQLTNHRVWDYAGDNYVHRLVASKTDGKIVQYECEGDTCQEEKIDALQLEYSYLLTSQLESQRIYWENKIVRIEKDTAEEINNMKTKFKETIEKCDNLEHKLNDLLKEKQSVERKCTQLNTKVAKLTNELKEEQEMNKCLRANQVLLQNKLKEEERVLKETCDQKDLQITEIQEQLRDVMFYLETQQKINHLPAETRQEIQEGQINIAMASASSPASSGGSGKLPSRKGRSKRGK
UniProt Q14137: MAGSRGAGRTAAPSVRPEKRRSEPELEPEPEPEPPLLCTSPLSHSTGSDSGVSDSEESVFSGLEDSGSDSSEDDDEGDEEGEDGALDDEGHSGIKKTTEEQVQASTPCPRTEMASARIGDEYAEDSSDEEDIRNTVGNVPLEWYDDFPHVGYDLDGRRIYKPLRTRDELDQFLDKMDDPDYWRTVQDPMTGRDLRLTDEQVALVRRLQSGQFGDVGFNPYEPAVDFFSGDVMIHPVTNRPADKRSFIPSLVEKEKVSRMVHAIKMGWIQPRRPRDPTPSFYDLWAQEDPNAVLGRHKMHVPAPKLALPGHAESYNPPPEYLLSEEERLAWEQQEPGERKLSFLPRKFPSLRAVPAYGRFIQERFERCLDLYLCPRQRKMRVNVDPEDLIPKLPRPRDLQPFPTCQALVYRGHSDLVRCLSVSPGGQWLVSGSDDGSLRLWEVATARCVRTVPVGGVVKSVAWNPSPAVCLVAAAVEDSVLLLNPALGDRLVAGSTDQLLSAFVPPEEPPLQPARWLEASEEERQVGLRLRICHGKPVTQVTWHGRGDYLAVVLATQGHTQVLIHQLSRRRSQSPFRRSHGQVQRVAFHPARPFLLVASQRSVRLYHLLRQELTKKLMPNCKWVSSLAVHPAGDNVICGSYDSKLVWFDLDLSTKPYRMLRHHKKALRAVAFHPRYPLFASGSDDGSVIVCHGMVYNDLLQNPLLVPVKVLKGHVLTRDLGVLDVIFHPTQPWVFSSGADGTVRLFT
UniProt O15155: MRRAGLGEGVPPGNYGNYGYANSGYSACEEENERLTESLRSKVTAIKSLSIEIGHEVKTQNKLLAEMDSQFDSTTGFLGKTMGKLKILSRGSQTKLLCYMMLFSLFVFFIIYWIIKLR
UniProt P46379: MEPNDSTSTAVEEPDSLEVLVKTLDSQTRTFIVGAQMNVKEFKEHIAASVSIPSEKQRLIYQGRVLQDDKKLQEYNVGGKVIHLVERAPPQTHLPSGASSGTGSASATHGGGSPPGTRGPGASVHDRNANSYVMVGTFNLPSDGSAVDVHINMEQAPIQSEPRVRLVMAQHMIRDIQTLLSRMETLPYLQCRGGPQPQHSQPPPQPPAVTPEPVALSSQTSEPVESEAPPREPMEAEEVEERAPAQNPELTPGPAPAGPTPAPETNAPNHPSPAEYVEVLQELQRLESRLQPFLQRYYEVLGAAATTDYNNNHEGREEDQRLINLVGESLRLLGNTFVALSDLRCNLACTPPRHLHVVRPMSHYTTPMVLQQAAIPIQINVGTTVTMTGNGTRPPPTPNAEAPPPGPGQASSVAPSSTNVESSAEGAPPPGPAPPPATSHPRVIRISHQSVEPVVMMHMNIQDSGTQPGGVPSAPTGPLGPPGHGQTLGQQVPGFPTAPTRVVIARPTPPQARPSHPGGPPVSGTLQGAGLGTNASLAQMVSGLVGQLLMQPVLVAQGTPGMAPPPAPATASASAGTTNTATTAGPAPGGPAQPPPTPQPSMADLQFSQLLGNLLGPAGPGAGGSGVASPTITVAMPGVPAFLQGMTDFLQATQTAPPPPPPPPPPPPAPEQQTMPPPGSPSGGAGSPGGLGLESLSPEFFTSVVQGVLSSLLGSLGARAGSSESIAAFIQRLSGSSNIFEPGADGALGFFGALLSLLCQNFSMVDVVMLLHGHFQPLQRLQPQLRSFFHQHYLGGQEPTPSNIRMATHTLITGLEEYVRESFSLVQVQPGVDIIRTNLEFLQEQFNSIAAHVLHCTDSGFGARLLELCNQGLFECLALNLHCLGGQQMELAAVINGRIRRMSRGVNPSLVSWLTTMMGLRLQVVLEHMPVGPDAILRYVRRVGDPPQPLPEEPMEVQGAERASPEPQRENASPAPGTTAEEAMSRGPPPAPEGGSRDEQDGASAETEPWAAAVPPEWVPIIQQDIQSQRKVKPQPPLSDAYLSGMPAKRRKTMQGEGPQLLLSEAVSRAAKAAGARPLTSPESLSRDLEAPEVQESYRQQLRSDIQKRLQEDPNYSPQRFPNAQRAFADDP
UniProt Q13490, whole entry, looked up: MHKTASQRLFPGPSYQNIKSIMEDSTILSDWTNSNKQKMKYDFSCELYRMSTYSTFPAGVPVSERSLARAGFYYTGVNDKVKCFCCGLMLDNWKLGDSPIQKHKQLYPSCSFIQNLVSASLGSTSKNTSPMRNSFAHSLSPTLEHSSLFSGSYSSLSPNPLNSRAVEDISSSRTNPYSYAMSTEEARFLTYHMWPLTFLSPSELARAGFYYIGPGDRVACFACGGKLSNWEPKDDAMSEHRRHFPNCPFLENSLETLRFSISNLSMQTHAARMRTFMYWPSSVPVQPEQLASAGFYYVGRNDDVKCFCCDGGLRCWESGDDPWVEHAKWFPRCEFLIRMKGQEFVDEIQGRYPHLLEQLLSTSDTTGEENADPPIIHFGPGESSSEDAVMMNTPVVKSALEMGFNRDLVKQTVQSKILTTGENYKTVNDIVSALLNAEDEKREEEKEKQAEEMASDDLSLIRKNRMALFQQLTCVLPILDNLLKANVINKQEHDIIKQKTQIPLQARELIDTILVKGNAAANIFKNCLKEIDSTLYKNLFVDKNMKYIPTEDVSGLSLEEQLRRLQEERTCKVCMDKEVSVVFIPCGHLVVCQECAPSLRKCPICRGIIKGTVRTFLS
UniProt Q86UU0: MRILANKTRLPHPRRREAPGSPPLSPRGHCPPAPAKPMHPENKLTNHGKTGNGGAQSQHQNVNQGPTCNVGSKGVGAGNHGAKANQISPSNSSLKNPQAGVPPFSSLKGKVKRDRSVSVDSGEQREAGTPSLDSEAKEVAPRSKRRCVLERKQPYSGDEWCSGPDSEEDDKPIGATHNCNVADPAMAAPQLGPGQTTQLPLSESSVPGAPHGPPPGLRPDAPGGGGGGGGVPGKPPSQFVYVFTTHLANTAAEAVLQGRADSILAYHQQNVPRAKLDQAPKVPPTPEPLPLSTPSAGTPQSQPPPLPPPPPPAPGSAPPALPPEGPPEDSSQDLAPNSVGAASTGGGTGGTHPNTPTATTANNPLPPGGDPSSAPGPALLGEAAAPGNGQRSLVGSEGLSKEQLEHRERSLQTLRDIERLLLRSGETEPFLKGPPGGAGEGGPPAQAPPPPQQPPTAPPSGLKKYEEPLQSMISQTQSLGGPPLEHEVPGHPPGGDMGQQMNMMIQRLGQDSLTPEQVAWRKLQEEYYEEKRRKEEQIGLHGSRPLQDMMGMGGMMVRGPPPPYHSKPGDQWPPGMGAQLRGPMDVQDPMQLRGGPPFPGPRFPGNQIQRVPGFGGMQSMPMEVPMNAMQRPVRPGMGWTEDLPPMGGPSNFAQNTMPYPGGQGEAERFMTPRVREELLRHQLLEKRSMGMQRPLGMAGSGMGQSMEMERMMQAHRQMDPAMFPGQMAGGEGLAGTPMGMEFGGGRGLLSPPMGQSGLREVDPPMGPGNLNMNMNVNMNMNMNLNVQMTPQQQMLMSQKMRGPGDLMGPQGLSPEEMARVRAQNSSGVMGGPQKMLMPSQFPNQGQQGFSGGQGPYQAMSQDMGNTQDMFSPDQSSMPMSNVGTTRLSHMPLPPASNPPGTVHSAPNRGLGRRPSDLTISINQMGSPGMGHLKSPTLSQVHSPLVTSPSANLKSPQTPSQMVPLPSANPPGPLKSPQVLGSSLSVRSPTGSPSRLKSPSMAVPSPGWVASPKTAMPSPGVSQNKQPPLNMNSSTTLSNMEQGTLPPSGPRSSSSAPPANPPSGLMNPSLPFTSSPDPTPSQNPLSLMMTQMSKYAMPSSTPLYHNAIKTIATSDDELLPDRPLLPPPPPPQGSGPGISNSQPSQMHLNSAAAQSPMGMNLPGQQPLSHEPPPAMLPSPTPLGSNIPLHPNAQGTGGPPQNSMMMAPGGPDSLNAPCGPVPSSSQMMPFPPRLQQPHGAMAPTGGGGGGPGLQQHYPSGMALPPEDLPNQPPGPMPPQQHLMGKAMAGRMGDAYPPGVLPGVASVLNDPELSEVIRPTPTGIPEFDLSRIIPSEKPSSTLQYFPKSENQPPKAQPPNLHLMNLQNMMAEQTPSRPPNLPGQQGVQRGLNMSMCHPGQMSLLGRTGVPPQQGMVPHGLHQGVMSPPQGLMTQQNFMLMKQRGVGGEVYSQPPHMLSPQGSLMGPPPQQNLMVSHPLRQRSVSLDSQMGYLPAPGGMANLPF
UniProt Q96GX2: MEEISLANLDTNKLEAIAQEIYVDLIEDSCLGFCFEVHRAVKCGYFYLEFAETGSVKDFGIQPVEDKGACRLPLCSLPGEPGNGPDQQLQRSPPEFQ
UniProt Q6Y288: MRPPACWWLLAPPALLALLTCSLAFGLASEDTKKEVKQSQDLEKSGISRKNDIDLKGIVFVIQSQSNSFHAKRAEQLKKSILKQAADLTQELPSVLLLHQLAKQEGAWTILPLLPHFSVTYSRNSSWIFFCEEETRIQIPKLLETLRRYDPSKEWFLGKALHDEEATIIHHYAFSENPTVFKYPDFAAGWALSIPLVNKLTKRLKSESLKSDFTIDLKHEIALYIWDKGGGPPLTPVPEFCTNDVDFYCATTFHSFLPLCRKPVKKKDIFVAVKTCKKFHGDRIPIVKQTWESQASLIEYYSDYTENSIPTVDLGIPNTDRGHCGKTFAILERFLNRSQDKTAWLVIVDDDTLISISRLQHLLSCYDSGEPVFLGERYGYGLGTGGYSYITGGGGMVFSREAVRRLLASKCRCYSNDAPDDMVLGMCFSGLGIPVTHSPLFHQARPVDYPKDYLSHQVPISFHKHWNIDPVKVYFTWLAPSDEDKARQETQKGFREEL
UniProt Q99933: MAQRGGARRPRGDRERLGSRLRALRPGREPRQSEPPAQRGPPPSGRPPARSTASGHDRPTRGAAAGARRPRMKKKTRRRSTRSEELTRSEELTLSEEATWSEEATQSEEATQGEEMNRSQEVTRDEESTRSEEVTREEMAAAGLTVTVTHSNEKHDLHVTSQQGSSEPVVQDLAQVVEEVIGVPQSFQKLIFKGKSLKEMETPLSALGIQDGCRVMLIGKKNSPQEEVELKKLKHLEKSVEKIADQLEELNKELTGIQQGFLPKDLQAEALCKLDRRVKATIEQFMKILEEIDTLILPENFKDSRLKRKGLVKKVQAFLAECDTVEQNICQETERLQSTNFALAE
UniProt Q9NUP1: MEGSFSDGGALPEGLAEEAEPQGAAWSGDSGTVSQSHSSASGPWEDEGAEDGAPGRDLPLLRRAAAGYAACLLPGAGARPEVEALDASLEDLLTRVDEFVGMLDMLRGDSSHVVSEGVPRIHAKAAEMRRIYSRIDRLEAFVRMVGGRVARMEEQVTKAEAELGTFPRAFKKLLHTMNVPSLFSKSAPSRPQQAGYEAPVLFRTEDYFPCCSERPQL
UniProt Q5VW32: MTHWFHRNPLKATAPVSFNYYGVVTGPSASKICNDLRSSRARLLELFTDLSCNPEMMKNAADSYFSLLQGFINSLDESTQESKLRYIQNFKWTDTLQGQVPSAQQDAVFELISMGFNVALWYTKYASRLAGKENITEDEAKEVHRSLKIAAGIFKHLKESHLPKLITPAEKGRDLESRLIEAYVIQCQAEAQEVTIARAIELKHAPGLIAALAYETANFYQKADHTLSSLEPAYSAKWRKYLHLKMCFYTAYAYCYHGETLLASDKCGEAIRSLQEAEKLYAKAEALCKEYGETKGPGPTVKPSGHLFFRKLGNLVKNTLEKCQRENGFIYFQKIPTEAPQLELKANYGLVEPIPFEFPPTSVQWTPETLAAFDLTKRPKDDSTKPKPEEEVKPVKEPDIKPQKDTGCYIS
UniProt Q16611: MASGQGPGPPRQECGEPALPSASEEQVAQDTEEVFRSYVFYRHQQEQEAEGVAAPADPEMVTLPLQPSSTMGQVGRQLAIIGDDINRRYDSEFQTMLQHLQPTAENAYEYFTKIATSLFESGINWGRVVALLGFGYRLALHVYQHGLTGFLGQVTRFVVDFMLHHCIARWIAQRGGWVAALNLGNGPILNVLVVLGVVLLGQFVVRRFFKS

filanesib = compound: CON(C)C(=O)N1N=C(c2cc(F)ccc2F)S[C@@]1(CCCN)c1ccccc1 [filanesib]
In short: as §1

zotarolimus = compound: CO[C@H]1C[C@@H]2CC[C@@H](C)[C@@](O)(O2)C(=O)C(=O)N2CCCC[C@H]2C(=O)O[C@H]([C@H](C)C[C@@H]2CC[C@H](n3cnnn3)[C@H](OC)C2)CC(=O)[C@H](C)/C=C(\C)[C@@H](O)[C@@H](OC)C(=O)[C@H](C)C[C@H](C)/C=C/C=C/C=C/1C [zotarolimus]
In short: as §1

idasanutlin = compound: COc1cc(C(=O)O)ccc1NC(=O)[C@@H]1N[C@@H](CC(C)(C)C)[C@](C#N)(c2ccc(Cl)cc2F)[C@H]1c1cccc(Cl)c1F [idasanutlin]
In short: as §1

alisertib = compound: COc1cc(Nc2ncc3c(n2)-c2ccc(Cl)cc2C(c2c(F)cccc2OC)=NC3)ccc1C(=O)O [alisertib]
In short: as §1

[2] = compound: COc1cc2nc(-c3cc(F)ccc3O)nc(N[C@@H]3CNC[C@H]3C(C)(C)O)c2cc1OC
In short: as §1

gefitinib = compound: COc1cc2ncnc(Nc3ccc(F)c(Cl)c3)c2cc1OCCCN1CCOCC1 [gefitinib]
In short: as §1

[3] = compound: COc1cccc2cc(-c3nc([C@H]4CC[C@H](C(=O)O)CC4)n4ncnc(N)c34)[nH]c12
In short: as §1

lapatinib = compound: CS(=O)(=O)CCNCc1ccc(-c2ccc3ncnc(Nc4ccc(OCc5cccc(F)c5)c(Cl)c4)c3c2)o1 [lapatinib]
In short: as §1

pictilisib = compound: CS(=O)(=O)N1CCN(Cc2cc3nc(-c4cccc5[nH]ncc45)nc(N4CCOCC4)c3s2)CC1 [pictilisib]
In short: as §1

Measured: log2 fold change

BRAP (UniProt Q7Z569)
inactive: [1] 0.062 | filanesib 0.02 | zotarolimus 0.01 | idasanutlin 0.028 | alisertib -0.058 | [2] -0.108 | gefitinib 0.053 | [3] -0.134 | lapatinib 0.073 | pictilisib -0.055

BRD3 (UniProt Q15059)
inactive: [1] 0.027 | filanesib 0.297 | zotarolimus -0.077 | idasanutlin -0.012 | alisertib -0.035 | [2] 0.086 | gefitinib 0.227 | [3] -0.002 | lapatinib -0.057 | pictilisib 0.081

BRI3BP (UniProt Q8WY22)
inactive: [1] 0.004 | filanesib -0.026 | zotarolimus -0.035 | idasanutlin 0.062 | alisertib -0.193 | [2] 0.015 | gefitinib 0.019 | [3] 0.138 | lapatinib 0.039

BLOC1S1 (UniProt P78537)
inactive: [1] -0.14 | filanesib -0.072 | zotarolimus 0.021 | idasanutlin -0.093 | alisertib -0.066 | [2] -0.044 | gefitinib -0.009 | [3] 0.007 | lapatinib -0.037 | pictilisib -0.014

BLM (UniProt P54132)
inactive: [1] -0.082 | filanesib 0.011 | zotarolimus -0.011 | idasanutlin -0.15 | alisertib -0.018 | [2] 0.047 | gefitinib -0.014 | [3] 0.036 | lapatinib -0.019

BOP1 (UniProt Q14137)
inactive: [1] -0.059 | filanesib 0.161 | zotarolimus 0.054 | idasanutlin 0.077 | alisertib -0.131 | [2] -0.085 | gefitinib 0.017 | [3] -0.012 | lapatinib -0.034 | pictilisib 0

BET1 (UniProt O15155)
inactive: [1] -0.06 | filanesib -0.08 | zotarolimus 0.036 | idasanutlin -0.017 | alisertib -0.055 | [2] -0.062 | gefitinib -0.024 | [3] 0.025 | lapatinib -0.029 | pictilisib 0.024

BPNT1 (UniProt O95861)
inactive: [1] 0.022 | filanesib -0.046 | zotarolimus -0.005 | idasanutlin -0.017 | alisertib 0.157 | [2] 0.023 | gefitinib 0.015 | [3] 0.026 | lapatinib -0.003 | pictilisib 0.065

BAG6 isoform 3 (UniProt P46379)
inactive: [1] 0.026 | filanesib -0.024 | zotarolimus 0.045 | idasanutlin 0.077 | alisertib -0.115 | [2] -0.013 | gefitinib -0.011 | [3] -0.024 | lapatinib 0.011 | pictilisib -0.004

BIRC2 (UniProt Q13490)
inactive: [1] -0.01 | filanesib 0.01 | zotarolimus 0.011 | idasanutlin -0.007 | alisertib -0.093 | [2] 0.139 | gefitinib 0.029 | [3] 0.097 | lapatinib -0.106 | pictilisib 0.031

AZGP1 (UniProt P25311)
inactive: [1] 0.596 | filanesib 0.421 | zotarolimus -0.304 | idasanutlin 0.046 | alisertib 0.589 | [2] 0.14 | gefitinib 0.108 | [3] -0.117 | lapatinib -0.213 | pictilisib 0.437

B4GALT3 (UniProt O60512)
inactive: [1] 0.14 | filanesib 0.027 | zotarolimus -0.05 | idasanutlin 0.059 | alisertib -0.052 | [2] -0.029 | gefitinib -0.065 | [3] 0 | lapatinib 0.087 | pictilisib 0.005

BNIP1 (UniProt Q12981)
inactive: [1] 0 | filanesib -0.009 | zotarolimus 0.008 | idasanutlin -0.009 | alisertib -0.026 | [2] -0.084 | gefitinib 0.044 | [3] 0.01 | lapatinib -0.005 | pictilisib 0.047

BCCIP isoform 2 (UniProt Q9P287)
inactive: [1] -0.059 | filanesib 0.05 | zotarolimus -0.002 | idasanutlin -0.021 | alisertib 0.024 | [2] 0.021 | gefitinib 0 | [3] 0.026 | lapatinib -0.007 | pictilisib -0.021

BLOC1S3 (UniProt Q6QNY0)
inactive: [1] -0.013 | filanesib -0.066 | zotarolimus -0.014 | idasanutlin -0.149 | alisertib 0.005 | [2] -0.018 | gefitinib 0.048 | [3] 0.058 | lapatinib -0.007 | pictilisib 0.126

BSDC1 (UniProt Q9NW68)
inactive: [1] -0.058 | filanesib -0.047 | zotarolimus -0.032 | idasanutlin -0.038 | alisertib -0.047 | [2] -0.118 | gefitinib -0.06 | [3] 0.029 | lapatinib -0.038 | pictilisib -0.004

BCAP31 isoform 2 (UniProt P51572)
inactive: [1] -0.056 | filanesib -0.046 | zotarolimus -0.005 | idasanutlin -0.012 | alisertib -0.032 | [2] 0.021 | gefitinib 0.03 | [3] 0.015 | lapatinib -0.073 | pictilisib -0.049

BCL9L (UniProt Q86UU0)
inactive: [1] -0.048 | filanesib 0.017 | zotarolimus -0.043 | idasanutlin 0.028 | alisertib 0.014 | [2] 0.02 | gefitinib 0.034 | [3] -0.067 | lapatinib 0.011 | pictilisib -0.007

ATXN7L3B (UniProt Q96GX2)
inactive: [1] -0.052 | filanesib 0.128 | zotarolimus 0.048 | idasanutlin -0.04 | alisertib -0.058 | [2] 0.036 | gefitinib 0.043 | [3] 0.008 | lapatinib -0.042 | pictilisib 0.004

B3GLCT (UniProt Q6Y288)
inactive: [1] -0.107 | filanesib -0.016 | zotarolimus 0.019 | idasanutlin -0.019 | alisertib -0.058 | [2] -0.103 | gefitinib -0.017 | [3] -0.008 | lapatinib 0.216 | pictilisib 0.089

ATRAID isoform 3 (UniProt Q6UW56)
inactive: [1] -0.034 | filanesib -0.074 | zotarolimus -0.029 | idasanutlin -0.052 | alisertib -0.072 | [2] -0.015 | gefitinib -0.033 | [3] 0.167 | lapatinib -0.044 | pictilisib 0.056

ATRN (UniProt O75882)
inactive: [1] -0.243 | filanesib -0.037 | zotarolimus 0 | idasanutlin -0.032 | alisertib 0.095 | [2] -0.004 | gefitinib 0.108 | [3] 0.111 | lapatinib 0.043 | pictilisib 0.153

BAG1 (UniProt Q99933)
inactive: [1] 0.059 | filanesib -0.058 | zotarolimus -0.074 | idasanutlin 0.01 | alisertib -0.028 | [2] 0.053 | gefitinib -0.022 | [3] 0.004 | lapatinib -0.011 | pictilisib -0.017

2 successive records from above:
ATRN (UniProt O75882)
inactive: [1] -0.243 | filanesib -0.037 | zotarolimus 0 | idasanutlin -0.032 | alisertib 0.095 | [2] -0.004 | gefitinib 0.108 | [3] 0.111 | lapatinib 0.043 | pictilisib 0.153

BAG1 (UniProt Q99933)
inactive: [1] 0.059 | filanesib -0.058 | zotarolimus -0.074 | idasanutlin 0.01 | alisertib -0.028 | [2] 0.053 | gefitinib -0.022 | [3] 0.004 | lapatinib -0.011 | pictilisib -0.017

(cont.)

BLOC1S4 (UniProt Q9NUP1)
inactive: [1] 0.007 | filanesib -0.003 | zotarolimus 0.017 | idasanutlin -0.056 | alisertib 0.017 | [2] 0.03 | gefitinib 0.04 | [3] 0.108 | lapatinib -0.001 | pictilisib -0.033

BORCS6 (UniProt Q96GS4)
inactive: [1] 0.031 | filanesib -0.127 | zotarolimus -0.055 | idasanutlin -0.013 | alisertib 0.003 | [2] -0.001 | gefitinib 0.015 | [3] 0.051 | lapatinib -0.026 | pictilisib 0.089

BNIP2 (UniProt J3KN59)
inactive: [1] 0 | filanesib -0.103 | zotarolimus 0.036 | idasanutlin -0.075 | alisertib 0.05 | [2] -0.08 | gefitinib 0.511 | [3] 0.138 | lapatinib 0.011 | pictilisib 0.004

BROX (UniProt Q5VW32)
inactive: [1] 0.078 | filanesib -0.036 | zotarolimus 0.054 | idasanutlin -0.067 | alisertib 0.008 | [2] 0.106 | gefitinib 0.012 | [3] -0.108 | lapatinib -0.025 | pictilisib 0.026

BAK1 (UniProt Q16611)
inactive: [1] -0.16 | filanesib 0.007 | zotarolimus 0.067 | idasanutlin -0.067 | alisertib -0.054 | [2] -0.071 | gefitinib 0.121 | [3] 0.082 | lapatinib 0.002 | pictilisib -0.036

BPGM (UniProt P07738)
inactive: [1] -0.014 | filanesib 0.044 | zotarolimus -0.029 | idasanutlin -0.037 | alisertib -0.048 | [2] 0.028 | gefitinib 0.036 | [3] 0.037 | lapatinib -0.033 | pictilisib -0.015

BAP1 (UniProt Q92560)
inactive: [1] 0.032 | filanesib 0.111 | zotarolimus 0.046 | idasanutlin 0.164 | alisertib -0.112 | [2] -0.006 | gefitinib -0.055 | [3] -0.024 | lapatinib 0.119 | pictilisib 0.062

— the supplement of paper PMC10849652
